Data published in article PMC4499774.
No constants are given. Whether binding was seen depends on the method and setting. Binding seen in cells or lysates may run through a third protein. Binding calls can cover weak binding; strength is not graded here.

Protein sequences, listed by entry. Tags and fused reporters are not part of them. Lines headed by an entry give the natural chain unless they say otherwise; changes in a name come on top.
UniProt O85041: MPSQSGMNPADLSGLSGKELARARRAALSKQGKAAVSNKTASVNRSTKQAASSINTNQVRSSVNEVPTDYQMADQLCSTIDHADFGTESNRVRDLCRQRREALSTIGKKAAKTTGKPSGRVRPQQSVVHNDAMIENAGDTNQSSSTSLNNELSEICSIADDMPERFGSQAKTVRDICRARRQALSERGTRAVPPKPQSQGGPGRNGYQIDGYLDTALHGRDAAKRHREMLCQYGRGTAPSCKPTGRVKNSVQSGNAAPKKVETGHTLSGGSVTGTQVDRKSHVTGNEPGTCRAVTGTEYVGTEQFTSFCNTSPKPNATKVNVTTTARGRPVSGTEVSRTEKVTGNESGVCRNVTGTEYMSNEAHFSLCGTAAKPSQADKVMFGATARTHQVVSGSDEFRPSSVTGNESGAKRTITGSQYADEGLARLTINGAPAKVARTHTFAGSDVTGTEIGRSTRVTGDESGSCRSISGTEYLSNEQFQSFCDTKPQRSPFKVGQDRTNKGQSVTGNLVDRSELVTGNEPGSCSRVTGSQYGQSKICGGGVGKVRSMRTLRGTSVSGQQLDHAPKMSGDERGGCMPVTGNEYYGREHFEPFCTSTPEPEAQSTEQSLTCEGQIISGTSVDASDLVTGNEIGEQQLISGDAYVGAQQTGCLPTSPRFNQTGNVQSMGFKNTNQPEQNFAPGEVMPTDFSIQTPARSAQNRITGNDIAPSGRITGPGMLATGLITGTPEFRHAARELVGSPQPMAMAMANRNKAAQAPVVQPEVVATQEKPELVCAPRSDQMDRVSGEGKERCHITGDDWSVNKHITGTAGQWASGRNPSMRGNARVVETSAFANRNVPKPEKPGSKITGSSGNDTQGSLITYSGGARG

Molecular target: SPA-tagged Hnea CsoS2B (full length CsoS2 with C-terminal SPA tag, in HnSPAS2 mutant carboxysomes) (Halothiobacillus neapolitanus) (UniProt O85041)
Assay: co-IP; purified HnSPAS2 mutant carboxysomes bound to agarose beads conjugated with α-FLAG antibodies, eluted with 100 mM glycine buffer, pH 2.5; eluate analysed by SDS-PAGE and densitometry; the trapped carboxysomes were taken to be intact

binding: binds
Substance: Hnea CsoS2A (short form of CsoS2, in HnSPAS2 mutant carboxysomes) (from UniProt O85041-2)
